In article PMC10337483 (Biochemistry, 2022):

Biological target: T1, CYP2J2 (Homo sapiens, UniProt P51589)
T1 sequence (P51589 1-502): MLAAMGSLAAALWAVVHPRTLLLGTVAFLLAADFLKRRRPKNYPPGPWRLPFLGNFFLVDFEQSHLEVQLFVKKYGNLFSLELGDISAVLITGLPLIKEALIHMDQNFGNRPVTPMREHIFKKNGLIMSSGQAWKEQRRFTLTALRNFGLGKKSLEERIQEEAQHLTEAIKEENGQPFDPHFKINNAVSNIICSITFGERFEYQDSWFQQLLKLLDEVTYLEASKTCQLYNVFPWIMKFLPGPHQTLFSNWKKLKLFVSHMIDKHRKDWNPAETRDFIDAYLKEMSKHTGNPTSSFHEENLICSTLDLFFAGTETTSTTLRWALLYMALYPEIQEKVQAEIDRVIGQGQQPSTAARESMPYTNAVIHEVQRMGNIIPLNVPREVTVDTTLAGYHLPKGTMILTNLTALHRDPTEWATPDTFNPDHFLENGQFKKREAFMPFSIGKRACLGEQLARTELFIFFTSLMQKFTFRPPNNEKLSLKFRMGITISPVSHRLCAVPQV
Test: Spectral
Conditions: presence versus absence of CBG

`CC(C)(C)c1ccc(C(=O)CCCN2CCC(OC(c3ccccc3)c3ccccc3)CC2)cc1` [EBS, ebastine] was tested, and the “increase of Ks of EBS on binding to CYP2J2-CBG bound complex” value was ~ 4 fold.
